Test results reported in patent US6960430B2, “Screening methods for compounds useful in the regulation of cell proliferation” (priority 1999, dated 2005).
For at least one compound, name, drawing or mass did not settle the structure.

Assays:
[1] = test system: tetracycline-regulated transactivator protein tTA; test: Hsp72 expression from adenovirus vector controlled by tetracycline-regulated transactivator in Rat-1 cells, immunoblot; type: cell-based; conditions: presence of tetracycline, cells replated and reinfected on day ten
Description: Recombinant adenovirus vector expressing Hsp72 (ADTR5Hsp72-GFP, curtesy of Dr. Mosser, Biotechnology Research Institute, Montreal) was constructed by cloning a dicistronic transcription unit encoding Hsp72 and Aequorea Victoria green fluorescent protein gene, separated by the encephalomyocarditis virus internal ribosome entry site from pTR-DC/Hsp70-GFP (Mosser et al., 1997a, Mol. Cell Biol, 17: 5317-5327; Mosser et al., 1997b, Biotechniques 22: 150-161) into an adenovirus transfer vector. Expression of this transcription unit is controlled by the tetracycline-regulated transactivator protein tTA (Mosser et al., 1997b, Biotechniques 22: 150-161) which we expressed from a separate recombinant adenovirus. Recombinant adenoviruses were generated by standard techniques as detailed by (Jani et al., 1997, J. Virol. Methods 64: 111-124). Viruses were used at stock concentration of 10^10 pfu/ml. […] Two-ml cell cultures grown in liquid medium in 35 mm dishes were infected in the presence or the absence of anhydrotetracycline with 3·10^7 pfu of each virus, sufficient for infection of almost 100% cells, and additional 10^7 pfu of each virus was added on days three and seven. After 24 hours incubation with viruses, cells were washed with PBS and placed in fresh media with or without anhydrotetracycline. […]

[2] = test system: Rat-1 cells; test: Foci formation (contact inhibition) and soft agar colony formation of Rat-1 cells infected with Hsp72-containing adenovirus; type: cell-based

## CN(C)[C@@H]1C(O)=C(C(N)=O)C(=O)[C@@]2(O)C(O)=C3C(=O)c4c(O)cccc4[C@@](C)(O)[C@H]3C[C@@H]12 [tetracycline]
[1]
  Hsp72 level in reinfected Rat-1 cells: dropped to its basal level within three days
[2]; cells maintained in the presence of tetracycline
  contact inhibition / foci formation of infected Rat-1 cells: Normal contact inhibition was observed
[2]; presence of tetracycline
  colony formation in soft agar of infected Rat-1 cells: no colonies were observed
